This is an account of results in US10047081B2, “BACE1 inhibitors” (Hoffmann-La Roche Inc., priority 2015, dated 2018).

Amino acid sequences for entries named in this document (tags omitted). Residues count along the entry.
UniProt P56817, 46-501 limits assumed: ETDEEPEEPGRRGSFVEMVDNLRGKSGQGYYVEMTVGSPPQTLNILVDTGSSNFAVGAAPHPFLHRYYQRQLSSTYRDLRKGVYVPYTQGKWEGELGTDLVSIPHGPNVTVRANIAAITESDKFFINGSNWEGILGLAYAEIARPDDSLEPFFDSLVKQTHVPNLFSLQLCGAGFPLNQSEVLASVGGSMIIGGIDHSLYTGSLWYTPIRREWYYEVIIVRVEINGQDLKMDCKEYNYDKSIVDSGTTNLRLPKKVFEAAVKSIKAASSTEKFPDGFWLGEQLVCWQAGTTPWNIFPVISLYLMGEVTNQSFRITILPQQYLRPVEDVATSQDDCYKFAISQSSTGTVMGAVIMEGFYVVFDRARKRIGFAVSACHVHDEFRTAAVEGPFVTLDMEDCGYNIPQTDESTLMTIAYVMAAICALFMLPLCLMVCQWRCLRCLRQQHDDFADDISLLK

The structures given here were assigned with low confidence; some may be wrong.

The target of this assay is BACE1 (Homo sapiens, UniProt P56817). The assay is described as follows: Cellular Aβ-lowering assay (Abeta 40 AlphaLISA, HEK293 APP cells). Particulars: read-out: BACE1 cell act. Aβ40 IC50, 18-20 hrs incubation, Aβ 40 in culture supernatant, tested form: TFA. On the procedure:
Cellular Aβ-Lowering Assay:
The Abeta 40 AlphaLISA Assay can be used. The HEK293 APP cells were seeded in 96 well Microtiter plates in cell culture medium (Iscove's, plus 10% (v/v) fetal bovine serum, penicillin/streptomycin) to about 80% confluency and the compounds were added at a 3× concentration in ⅓ volume of culture medium (final DMSO concentration was kept at 1% v/v). After 18-20 hrs incubation at 37° C. and 5% CO2 in a humidified incubator, the culture supernatants were harvested for the determination of Aβ 40 concentrations using Perkin-Elmer Human Amyloid beta 1-40 (high specificity) Kit (Cat#AL275C).
In a Perkin-Elmer White Optiplate-384 (Cat#6007290), 2 ul culture supernatants were combined with 2 μl of a 10× AlphaLISA Anti-hAβAcceptor beads + Biotinylated Antibody Anti-Aβ 1-40 Mix (50 μg/mL/5 nM). After 1 hour room temperature incubation, 16 μl of a 1.25× preparation of Streptavidin (SA) Donor beads (25 μg/mL) were added and incubated for 30 minutes in the Dark. Light Emission at 615 nm was then recorded using EnVision-Alpha Reader. Levels of Aβ 40 in the culture supernatants were calculated as percentage of maximum signal (cells treated with 1% DMSO without inhibitor). The IC50 values were calculated using the Excel XLfit software.

Take `COc1cnc(-c2cc(-c3ccc(F)c([C@]4(C)C[S@@](=O)(=NC5CC5)C(C)(C)C(N)=N4)c3)on2)cn1`: the IC50 – broadly, the concentration needed to halve the response being measured – was 13 nM.
